Source: patent US10173997B2, “Bipyridine compound and use of same for noxious arthropod control” (Sumitomo Chemical Company, Limited, priority 2015, dated 2019)
Some entries share one result that the patent states for a list of compounds. At least one structure is not confirmed: it was looked up by name or label, or the drawing left a doubt.

How the values were obtained:
Assay type in all cases: in vivo
[1] = system: cabbage moth (Plutella xylostella); assay: Test Example 8: cabbage moth on sprayed cabbage, 200 ppm; conditions: 20 mL/cup sprayed on cabbage, second instar larvae, after 5 days at 25° C.
[2] = system: cotton aphid (Aphis gossypii); assay: Test Example 1: cotton aphid on cucumber, foliar spray, 500 ppm; conditions: 20 mL sprayed on cucumber seedling carrying aphids, after 6 days
[3] = system: cotton aphid (Aphis gossypii); assay: Test Example 2: cotton aphid on cucumber, foliar spray, 200 ppm; conditions: 20 mL sprayed on cucumber seedling carrying aphids, after 6 days
[4] = system: brown planthopper (Nilaparvata lugens); assay: Test Example 4: brown planthopper on rice, foliar spray, 500 ppm; conditions: 10 mL sprayed on rice seedling, 3rd to 4th instar larvae, after 6 days
[5] = system: cotton aphid (Aphis gossypii); assay: Test Example 3: cotton aphid on cucumber, irrigation into plant foot, 200 ppm; conditions: 5 mL irrigated into plant foot of cucumber, aphids inoculated after 7 days, counted after additional 6 days
[6] = system: cabbage moth (Plutella xylostella); assay: Test Example 7: cabbage moth on sprayed cabbage, 500 ppm; conditions: 20 mL/cup sprayed on cabbage, second instar larvae, after 5 days at 25° C.

With `CCCS(=O)(=O)c1cccnc1-c1ccc(OCC(F)(F)C(F)(F)F)cn1` [compound 258] the mortality of insects [1] was ≥ 80%.
With `[O-][S+](CC(F)(F)F)c1cccnc1-c1ccc(OCC(F)(F)C(F)(F)F)cn1` (centres unmarked) [compound 246] the mortality of insects [1] was ≥ 80%.
With `CCS(=O)(=O)c1ccc[n+]([O-])c1-c1ccc(OCC(F)(F)C(F)(F)F)c[n+]1[O-]` [compound 224] the controlling value [2] was ≥ 90%, the controlling value [3] was ≥ 90% and the controlling value [4] was ≥ 90%. For the same molecule, the controlling value [5] was ≥ 90%.
In the case of `CCS(=O)(=O)c1cc(C(F)(F)F)c(-n2cnc(N)n2)nc1-c1ccc(OCC(F)(F)C(F)(F)F)cn1` [compound 340], the mortality of insects [1] is reported as ≥ 80%.
With `CCS(=O)(=O)c1cc(C(F)(F)F)c(N(N)C(C)C)nc1-c1ccc(OCC(F)(F)C(F)(F)F)cn1` [compound 333] the mortality of insects [6] was ≥ 80%.
